Measured values published in article PMC6803327.

The chains behind the UniProt entries cited, without tags or fusion partners.
UniProt A0A0H3MD02: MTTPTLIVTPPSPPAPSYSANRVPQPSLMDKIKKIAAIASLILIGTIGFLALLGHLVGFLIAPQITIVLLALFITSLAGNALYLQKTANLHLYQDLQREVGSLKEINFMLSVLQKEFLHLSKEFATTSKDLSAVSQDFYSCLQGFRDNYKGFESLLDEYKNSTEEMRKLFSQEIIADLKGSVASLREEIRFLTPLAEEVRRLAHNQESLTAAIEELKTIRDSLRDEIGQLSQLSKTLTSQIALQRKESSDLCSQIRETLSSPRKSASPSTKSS

Target: IncA-APEX2 (C. trachomatis (serovar of the cloned gene not stated))
Experiment: proximity labelling; as a1 up to the streptavidin beads; eluates read by Western blot (anti-IncA, anti-CT223, anti-LRRF1)

“IncA (endogenous) (from UniProt A0A0H3MD02 1-273)” was tested, and the binding was “binds”.

These are yes or no findings as the source states them, for the method shown. Binding seen in cells or lysates may run through a third protein. A yes stands for co-enrichment or nearness to the bait. Other partners may have been found.
